Reference: PubChem BioAssay AID1259308 (NCATS, 2017)
Purpose: 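Knock-downs that increase output of a recombinant reporter protein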 (primary screen). Cells: human HEK293 embryonic kidney cells stably expressing firefly luciferase (HEK-CMV-Luc2-Hygro). Knock-down reagent: single siRNA against human genes, 0.8 pmol siRNA per well. Duration: 72 h. Measurement: 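Luciferase light (ONE-Glo) measured on one replicate plate set and viability (CellTiter-Glo) on the other, scaled to a negative control siRNA, with robust z-scores and luciferase per cell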. Scale: total luciferase, z-score and total luciferase, % of control: higher = more reporter protein produced. Call rule: 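An siRNA counts as active if its total luciferase robust z-score exceeds 3; genes with two or more such siRNAs out of three were retested with fresh siRNAs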. Meaning of the calls: active = raised luciferase; inactive = no rise.
Shown is an unselected part of about 59,000 deposited reagents. In the full data, about 1,510 (2.6%) were called active. 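Calls use total luciferase alone and ignore viability, so some active siRNAs may act by altering cell number.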 Entries without a mark were called inactive. Further read-outs or replicates are left out here.

target	PubChem SID	total luciferase, z-score	total luciferase, % of control
CSN1S2AP	SID160763896	-0.547	71
CSN1S2AP	SID160763897	-0.681	68.3
CSN1S2AP	SID160763899	-0.173	78.5
STRIP1	SID160753217	-0.095	80
STRIP1	SID160753218	0.857	98.9
STRIP1	SID160753219	0.912	100
SPOP	SID160719972	1.02	102
SPOP	SID160719973	0.305	88
SPOP	SID160719974	0.311	88.1
AXIN1	SID160719833	-0.375	74.4
AXIN1	SID160719834	2.3	128
AXIN1	SID160719835	-2.37	34.7
TAS2R8	SID160739742	0.594	93.7
TAS2R8	SID160739743	0.118	84.2
TAS2R8	SID160739744	1.4	110
GINM1	SID160755384	0.572	93.3
GINM1	SID160755385	0.0229	82.3
GINM1	SID160755387	-0.406	73.8
SYT9	SID160758025	-0.0512	80.9
SYT9	SID160758026	0.761	97
SYT9	SID160758027	-0.309	75.7
GPN2	SID160724438	-0.687	68.2
GPN2	SID160742047	-1.44	53.2
GPN2	SID160742048	-0.395	74
HEMK2	SID160739075	-0.97	62.6
HEMK2	SID160739076	-0.501	71.9
HEMK2	SID160739077	0.456	90.9
AGVR6190 (retired record)	SID160769005	-1.03	61.5
AGVR6190 (retired record)	SID160769006	-0.606	69.8
AGVR6190 (retired record)	SID160769008	-0.499	72
ELAVL3	SID160730748	2.04	123
ELAVL3	SID160759683	0.0145	82.2
ELAVL3	SID160759693	0.825	98.3
MARCHF1	SID160731485	-0.0727	80.4
MARCHF1	SID160742753	0.708	96
MARCHF1	SID160742754	-0.687	68.2
MCUR1	SID160747305	1.18	105
MCUR1	SID160747306	0.367	89.2
MCUR1	SID160747307	-2.42	33.7
ZNF282	SID160720011	0.823	98.3
ZNF282	SID160720012	0.562	93.1
ZNF282	SID160720013	-0.703	67.9
FAM9C	SID160760524	-0.224	77.4
FAM9C	SID160760525	-0.904	63.9
FAM9C	SID160760526	1.86	119
DBN1	SID160752775	-0.938	63.2
DBN1	SID160752785	-1.28	56.5
DBN1	SID160752795	-0.354	74.9
MBP	SID160723919	-0.084	80.2
MBP	SID160723920	0.166	85.2
MBP	SID160733370	0.759	97
CYB5B	SID160750560	-0.679	68.4
CYB5B	SID160750561	-0.254	76.8
CYB5B	SID160750562	0.453	90.9
SAR1AP1	SID160733977	2.57	133
SAR1AP1	SID160769824	0.32	88.3
SAR1AP1	SID160769825	-0.749	67

No new results follow: an excerpt of the list.
target	PubChem SID	total luciferase, z-score	total luciferase, % of control
ELAVL3	SID160759683	0.0145	82.2
ELAVL3	SID160759693	0.825	98.3
MARCHF1	SID160731485	-0.0727	80.4
MARCHF1	SID160742753	0.708	96
MARCHF1	SID160742754	-0.687	68.2
